Data taken from PMC7862700.
This is a selection; strong and weak results do not stand in their true shares. For part of these data: At the low end of the ranking, values are background and their order means little.

Each sequence was assayed against T1, ELK1 (UniProt P19419) (assay: DAPPL (digital affinity profiling via proximity ligation, sequencing)). Conditions: 10 mM Tris-HCl pH 7.5, 50 mM NaCl, 1 mM DTT, 4% glycerol, room temperature, 30 min; GST-TFs on glutathione beads, 16-mer random dsDNA library, 0.1% …; high values mean tight binding; double strand, one strand shown; scale: fold enrichment (6-mer frequency, TF over GST control).
T1 sequence: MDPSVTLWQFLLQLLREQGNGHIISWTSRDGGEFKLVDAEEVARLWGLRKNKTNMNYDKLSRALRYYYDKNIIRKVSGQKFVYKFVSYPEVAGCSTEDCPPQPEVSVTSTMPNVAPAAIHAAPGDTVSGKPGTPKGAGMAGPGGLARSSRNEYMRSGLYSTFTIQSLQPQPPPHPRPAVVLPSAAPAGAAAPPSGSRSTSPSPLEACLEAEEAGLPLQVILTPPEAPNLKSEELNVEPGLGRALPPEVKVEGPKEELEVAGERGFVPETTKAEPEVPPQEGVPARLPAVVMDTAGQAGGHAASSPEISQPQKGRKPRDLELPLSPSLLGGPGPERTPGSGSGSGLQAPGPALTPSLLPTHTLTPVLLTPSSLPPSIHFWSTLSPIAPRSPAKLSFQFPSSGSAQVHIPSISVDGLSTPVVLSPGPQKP
TCACGC showed a binding signal of 1.18.
With ATAGTA the binding signal was 1.18.
ACCGAC gave a binding signal of 1.29.
Sequence ACCCGC has a binding signal of 1.29.
For TATCAT, the binding signal was 1.18.
With CGGCTA the binding signal was 1.14.
CCCTAC showed a binding signal of 1.49.
TGATCT was tested, and the binding signal was 1.33.
In the case of ATGCAC, the binding signal is reported as 1.33.
Work on TTTTGA yielded a binding signal of 1.18.
TTTAGC was tested, and the binding signal was 1.05.
For ATGCAA, the binding signal was 1.26.
In the case of ATATAC, the binding signal is reported as 1.24.
With TCCCTA the binding signal was 1.26.
GACCTT showed a binding signal of 1.68.

These sequences were tested against T2, SPIC (UniProt Q8N5J4) in the same assay as above. Conditions: 10 mM Tris-HCl pH 7.5, 50 mM NaCl, 1 mM DTT, 4% glycerol, room temperature, 30 min; GST-TFs on glutathione beads, 16-mer random dsDNA library, 0.1% …; high values mean tight binding; double strand, one strand shown; scale: fold enrichment (6-mer frequency, TF over GST control).
T2 sequence: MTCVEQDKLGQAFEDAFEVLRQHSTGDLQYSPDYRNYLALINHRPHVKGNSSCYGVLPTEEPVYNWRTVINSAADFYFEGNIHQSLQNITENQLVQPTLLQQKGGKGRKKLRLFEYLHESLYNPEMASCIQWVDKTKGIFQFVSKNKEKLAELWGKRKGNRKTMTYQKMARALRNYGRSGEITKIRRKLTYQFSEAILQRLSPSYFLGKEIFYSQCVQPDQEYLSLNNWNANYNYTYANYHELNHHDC
GTACTT showed a binding signal of 1.86.
In the case of CTCGAT, the binding signal is reported as 1.46.
TCACGC showed a binding signal of 1.25.
With TTGAAC the binding signal was 1.06.
Sequence GTTTAC has a binding signal of 0.977.
Work on ATAGTA yielded a binding signal of 1.29.
With CTAAAC the binding signal was 1.18.
ACCGAC showed a binding signal of 1.37.
ACCCGC was tested, and the binding signal was 1.16.
Work on TATCAT yielded a binding signal of 1.25.
Work on TACGTA yielded a binding signal of 1.27.
TGCTTT gave a binding signal of 1.16.
AAAATT was tested, and the binding signal was 1.2.
Sequence TCCTTG has a binding signal of 1.23.
CGGCTA showed a binding signal of 0.898.
With CTCTGT the binding signal was 1.5.
For CCCTAC, the binding signal was 1.45.
TTACTC showed a binding signal of 1.24.
TGATCT was tested, and the binding signal was 1.19.
In the case of ATGCAC, the binding signal is reported as 1.19.
Sequence TTTTGA has a binding signal of 1.21.
In the case of TCCCAC, the binding signal is reported as 1.17.
Work on TTTAGC yielded a binding signal of 1.07.
In the case of TCGACA, the binding signal is reported as 1.28.
CTATAT showed a binding signal of 1.47.
CCTAAA gave a binding signal of 1.32.
Sequence ATAACT has a binding signal of 1.28.
AACCTT showed a binding signal of 1.17.
For ATGCAA, the binding signal was 1.11.
Sequence ACCGAT has a binding signal of 1.33.
CTAACG gave a binding signal of 1.04.
In the case of ATATAC, the binding signal is reported as 1.17.
Sequence TCCCTA has a binding signal of 1.31.
Work on GCATTC yielded a binding signal of 0.986.
With TGACTC the binding signal was 1.48.
For TGTTAT, the binding signal was 1.45.
With TGCTAT the binding signal was 1.37.
In the case of GCCCCT, the binding signal is reported as 1.22.
In the case of GACCTT, the binding signal is reported as 1.74.
